Test results as given in publication PMC12204631.

B1: IRC15 (protein, UniProt Q02733 1-499)
chain: MGGEDEILSTMEDFAAVYDVLVIGCGPGGFTAAMQASQAGLLTACVDQRASLGGAYLVDGAVPSKTLLYESYLYRLLQQQELIEQRGTRLFPAKFDMQAAQSALKHNIEELGNVYKRELSKNNVTVYKGTAAFKDPHHVEIAQRGMKPFIVEAKYIVVATGSAVIQCPGVAIDNDKIISSDKALSLDYIPSRFTIMGGGTIGLEIACIFNNLGSRVTIVESQSEICQNMDNELASATKTLLQCQGIAFLLDTRVQLAEADAAGQLNITLLNKVSKKTYVHHCDVLMVSIGRRPLLKGLDISSIGLDERDFVENVDVQTQSLLKYPHIKPIGDVTLGPMLALKAEEQAIRAIQSIGCTGSDGTSNCGFPPNVLYCQPQIGWVGYTEEGLAKARIPYQKGRVLFSQNVRYNTLLPREENTTVSPFIKVLIDSRDMKILGVHMINDDANELLSQASMAVSLGLTAHDVCKVPFPHPSLSESFKQAVQLAMANGTSPGVHVRE
B2: KAR3 (protein, UniProt P17119 1-729)
chain: MESLPRTPTKGRSTQHLSTPSPKNDILAMNGHKRRNTTTPPPKHTLLKPQRTDIHRHSLASQSRISMSPNRELLKNYKGTANLIYGNQKSNSGVTSFYKENVNELNRTQAILFEKKATLDLLKDELTETKEKINAVNLKFETLREEKIKIEQQLNLKNNELISIKEEFLSKKQFMNEGHEIHLKQLAASNKKELKQMENEYKTKIEKLKFMKIKQFENERASLLDKIEEVRNKITMNPSTLQEMLNDVEQKHMLEKEEWLTEYQSQWKKDIELNNKHMQEIESIKKEIENTLKPELAEKKKLLTEKRNAYEAIKVKVKEKEEETTRLRDEVALKQKTNLETLEKIKELEEYIKDTELGMKELNEILIKEETVRRTLHNELQELRGNIRVYCRIRPALKNLENSDTSLINVNEFDDNSGVQSMEVTKIQNTAQVHEFKFDKIFDQQDTNVDVFKEVGQLVQSSLDGYNVCIFAYGQTGSGKTFTMLNPGDGIIPSTISHIFNWINKLKTKGWDYKVNCEFIEIYNENIVDLLRSDNNNKEDTSIGLKHEIRHDQETKTTTITNVTSCKLESEEMVEIILKKANKLRSTASTASNEHSSRSHSIFIIHLSGSNAKTGAHSYGTLNLVDLAGSERINVSQVVGDRLRETQNINKSLSCLGDVIHALGQPDSTKRHIPFRNSKLTYLLQYSLTGDSKTLMFVNISPSSSHINETLNSLRFASKVNSTRLVSRK
B3: SMC4 (protein, UniProt Q12267 1-1418)
chain: MSDSPLSKRQKRKSAQEPELSLDQGDAEEDSQVENRVNLSENTPEPDLPALEASYSKSYTPRKLVLSSGENRYAFSQPTNSTTTSLHVPNLQPPKTSSRGRDHKSYSQSPPRSPGRSPTRRLELLQLSPVKNSRVELQKIYDRHQSSSKQQSRLFINELVLENFKSYAGKQVVGPFHTSFSAVVGPNGSGKSNVIDSMLFVFGFRANKMRQDRLSDLIHKSEAFPSLQSCSVAVHFQYVIDESSGTSRIDEEKPGLIITRKAFKNNSSKYYINEKESSYTEVTKLLKNEGIDLDHKRFLILQGEVENIAQMKPKAEKESDDGLLEYLEDIIGTANYKPLIEERMGQIENLNEVCLEKENRFEIVDREKNSLESGKETALEFLEKEKQLTLLRSKLFQFKLLQSNSKLASTLEKISSSNKDLEDEKMKFQESLKKVDEIKAQRKEIKDRISSCSSKEKTLVLERRELEGTRVSLEERTKNLVSKMEKAEKTLKSTKHSISEAENMLEELRGQQTEHETEIKDLTQLLEKERSILDDIKLSLKDKTKNISAEIIRHEKELEPWDLQLQEKESQIQLAESELSLLEETQAKLKKNVETLEEKILAKKTHKQELQDLILDLKKKLNSLKDERSQGEKNFTSAHLKLKEMQKVLNAHRQRAMEARSSLSKAQNKSKVLTALSRLQKSGRINGFHGRLGDLGVIDDSFDVAISTACPRLDDVVVDTVECAQHCIDYLRKNKLGYARFILLDRLRQFNLQPISTPENVPRLFDLVKPKNPKFSNAFYSVLRDTLVAQNLKQANNVAYGKKRFRVVTVDGKLIDISGTMSGGGNHVAKGLMKLGTNQSDKVDDYTPEEVDKIERELSERENNFRVASDTVHEMEEELKKLRDHEPDLESQISKAEMEADSLASELTLAEQQVKEAEMAYVKAVSDKAQLNVVMKNLERLRGEYNDLQSETKTKKEKIKGLQDEIMKIGGIKLQMQNSKVESVCQKLDILVAKLKKVKSASKKSGGDVVKFQKLLQNSERDVELSSDELKVIEEQLKHTKLALAENDTNMNETLNLKVELKEQSEQLKEQMEDMEESINEFKSIEIEMKNKLEKLNSLLTYIKSEITQQEKGLNELSIRDVTHTLGMLDDNKMDSVKEDVKNNQELDQEYRSCETQDESEIKDAETSCDNYHPMNIDETSDEVSRGIPRLSEDELRELDVELIESKINELSYYVEETNVDIGVLEEYARRLAEFKRRKLDLNNAVQKRDEVKEQLGILKKKRFDEFMAGFNIISMTLKEMYQMITMGGNAELELVDSLDPFSEGVTFSVMPPKKSWRNITNLSGGEKTLSSLALVFALHKYKPTPLYVMDEIDAALDFRNVSIVANYIKERTKNAQFIVISLRNNMFELAQQLVGVYKRDNRTKSTTIKNIDILNRT
B4: SMC5 (protein, UniProt Q08204 1-1093)
chain: MTSLIDLGRYVERTHHGEDTEPRSKRVKIAKPDLSSFQPGSIIKIRLQDFVTYTLTEFNLSPSLNMIIGPNGSGKSTFVCAVCLGLAGKPEYIGRSKKVEDFIKNGQDVSKIEITLKNSPNVTDIEYIDARDETIKITRIITRSKRRSDYLINDYQVSESVVKTLVAQLNIQLDNLCQFLSQERVEEFARLKSVKLLVETIRSIDASLLDVLDELRELQGNEQSLQKDLDFKKAKIVHLRQESDKLRKSVESLRDFQNKKGEIELHSQLLPYVKVKDHKEKLNIYKEEYERAKANLRAILKDKKPFANTKKTLENQVEELTEKCSLKTDEFLKAKEKINEIFEKLNTIRDEVIKKKNQNEYYRGRTKKLQATIISTKEDFLRSQEILAQTHLPEKSVFEDIDIKRKEIINKEGEIRDLISEIDAKANAINHEMRSIQRQAESKTKSLTTTDKIGILNQDQDLKEVRDAVLMVREHPEMKDKILEPPIMTVSAINAQFAAYLAQCVDYNTSKALTVVDSDSYKLFANPILDKFKVNLRELSSADTTPPVPAETVRDLGFEGYLSDFITGDKRVMKMLCQTSKIHTIPVSRRELTPAQIKKLITPRPNGKILFKRIIHGNRLVDIKQSAYGSKQVFPTDVSIKQTNFYQGSIMSNEQKIRIENEIINLKNEYNDRKSTLDALSNQKSGYRHELSELASKNDDINREAHQLNEIRKKYTMRKSTIETLREKLDQLKREARKDVSQKIKDIDDQIQQLLLKQRHLLSKMASSMKSLKNCQKELISTQILQFEAQNMDVSMNDVIGFFNEREADLKSQYEDKKKFVKEMRDTPEFQSWMREIRSYDQDTKEKLNKVAEKYEEEGNFNLSFVQDVLDKLESEIAMVNHDESAVTILDQVTAELRELEHTVPQQSKDLETIKAKLKEDHAVLEPKLDDIVSKISARFARLFNNVGSAGAVRLEKPKDYAEWKIEIMVKFRDNAPLKKLDSHTQSGGERAVSTVLYMIALQEFTSAPFRVVDEINQGMDSRNERIVHKAMVENACAENTSQYFLITPKLLTGLHYHEKMRIHCVMAGSWIPNPSEDPKMIHFGETSNYSFD
B5: BUB2 (protein, UniProt P26448 1-306)
chain: MTSIEDLISNPPLLLHSSLSQLRYLILSEGLPISEDKQQQRTRCYVWTVLSQTSMEASTQRYLALLKLGPPSTTIYQKIKNDTSRTFQTDPNFRNRVSEDALIRCLSCFAWQTQQRRQKTRFGRIPVSTYVQGMNVLLAPLLYSCPSEPMAYQLFTKLCYEMIPTYLTKNLNGAQNGAKLLDISLRIIDPKLSKFLSDNLLTAEIYGMPSILTLSSCNKPLDQVIKLWDFMFAYGFHMNILFVVAFLVKMRSKVFKSDSPVNLLRQFPDFDADEIIRLGVGFIAKIPAQIYDLLVDHLTDPDIYIP
B6: CDC31 (protein, UniProt P06704 1-161)
chain: MSKNRSSLQSGPLNSELLEEQKQEIYEAFSLFDMNNDGFLDYHELKVAMKALGFELPKREILDLIDEYDSEGRHLMKYDDFYIVMGEKILKRDPLDEIKRAFQLFDDDHTGKISIKNLRRVAKELGETLTDEELRAMIEEFDLDGDGEINENEFIAICTDS
B7: CNM67 (protein, UniProt P53865 1-581)
chain: MTDFDLMNFPFHERLDSPVSENGEIKDGEPIPQNWLNENHVGKSILPLFVNPEDVINCNFSNARDSYEENKSPSMDQMNYARNTSYQESPGLQERPKNEKDKSPIGTDVHKKDVPNFIHSTPRENSSKHFTRANEQASAQPTDEHTSPDISIEDCNGAKIFLQNSLSKEDFRMLENVILGYQKKVIELGRDNLRQEERANSLQKELEAATKSNDKTLDNKKKIEEQTVLIENLTKDLSLNKEMLEKANDTIQTKHTALLSLTDSLRKAELFEIPIGILFFDLYDSEENSSKLDHILQEKYPNIKGFLCASQQEELSRISQRFKNAKAEAEDLRNELENKKIEIQTMREKNNTLIGTNKTLSKQNKILCDKFDKLTIDEKEILKGCNEEIKIKLERLNERLGSWEKSKEKYETSLKDKEKMLADAEKKTNTLSKELDNLRSRFGNLEGNTSERITIKNILQSRPDISAEECNFLMVEQIDSANLTTLQNTVKEIVLAVGIPYPKLRRKIPLLAIKLKYENIMLSNFAQRLHRQVYSQEMNLKKFTDQAYYDFMSTRRMDSIDHHLERCLDHLYDHILEKMVK
B8: CSM1 (protein, UniProt P25651 1-190)
chain: MDPLTVYKNSVKQQIDSADLLVANLVNENFVLSEKLDTKATEIKQLQKQIDSLNAQVKELKTQTSQQAENSEVIKDLYEYLCNVRVHKSYEDDSGLWFDISQGTHSGGSSDDYSIMDYKLGFVKGQAQVTEVIYAPVLKQRSTEELYSLQSKLPEYLFETLSFPLSSLNQFYNKIAKSLNKKREKKDETE

target: T1, 6HIS-HA-JHD2 (S. cerevisiae) (UniProt P47156); test: affinity purification with mass spectrometry; whole cell extracts of a wild-type strain with 6HIS-HA-JHD2 induced from the GAL1 promoter for 6 hours; Ni-NTA agarose and anti-HA agarose beads at 4°C for 24 hours; proteins found with the empty vector strain excluded
T1 sequence: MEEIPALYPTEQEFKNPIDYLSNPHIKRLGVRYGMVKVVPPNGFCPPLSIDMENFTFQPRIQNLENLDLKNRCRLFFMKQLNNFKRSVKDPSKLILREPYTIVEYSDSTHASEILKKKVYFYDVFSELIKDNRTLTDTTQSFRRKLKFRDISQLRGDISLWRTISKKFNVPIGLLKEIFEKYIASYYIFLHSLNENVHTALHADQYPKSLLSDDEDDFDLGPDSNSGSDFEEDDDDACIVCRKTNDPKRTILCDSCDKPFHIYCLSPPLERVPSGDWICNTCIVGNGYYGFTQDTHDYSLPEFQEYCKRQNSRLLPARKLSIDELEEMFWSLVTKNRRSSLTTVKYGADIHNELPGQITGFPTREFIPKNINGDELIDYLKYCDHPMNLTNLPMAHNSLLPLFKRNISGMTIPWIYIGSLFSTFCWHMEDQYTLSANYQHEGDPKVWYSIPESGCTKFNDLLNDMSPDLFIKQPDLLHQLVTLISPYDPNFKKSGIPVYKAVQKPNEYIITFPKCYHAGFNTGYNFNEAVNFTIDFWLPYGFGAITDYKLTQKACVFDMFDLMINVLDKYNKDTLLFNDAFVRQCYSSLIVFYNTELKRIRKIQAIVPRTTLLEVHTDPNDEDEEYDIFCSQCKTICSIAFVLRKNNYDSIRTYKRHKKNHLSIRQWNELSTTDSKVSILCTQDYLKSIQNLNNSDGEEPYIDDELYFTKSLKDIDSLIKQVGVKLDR

Binder | binding
B1 | binds
B2 | binds
B3 | binds
B4 | binds
B5 | binds
B6 | binds
B7 | binds
B8 | binds

These are yes or no findings as the source states them, for the method shown. Binding seen in cells or lysates may run through a third protein. These calls come from enrichment with a bait or labelling near it, and not all partners need be listed. Where a sequence is shown, tags or fusion partners need not be part of it.
